Laboratory results: paper PMC3648463, “Common Interactions between S100A4 and S100A9 Defined by a Novel Chemical Probe” (PLoS ONE, 2013)
Results are given in words; binding and its absence hold for the method and conditions named. Binding calls can cover weak binding; strength is not graded here.

Chains of the proteins cited; added tags and fusions are not shown. Lines headed by an entry give the natural chain unless they say otherwise; changes in a name come on top.
UniProt Q15109: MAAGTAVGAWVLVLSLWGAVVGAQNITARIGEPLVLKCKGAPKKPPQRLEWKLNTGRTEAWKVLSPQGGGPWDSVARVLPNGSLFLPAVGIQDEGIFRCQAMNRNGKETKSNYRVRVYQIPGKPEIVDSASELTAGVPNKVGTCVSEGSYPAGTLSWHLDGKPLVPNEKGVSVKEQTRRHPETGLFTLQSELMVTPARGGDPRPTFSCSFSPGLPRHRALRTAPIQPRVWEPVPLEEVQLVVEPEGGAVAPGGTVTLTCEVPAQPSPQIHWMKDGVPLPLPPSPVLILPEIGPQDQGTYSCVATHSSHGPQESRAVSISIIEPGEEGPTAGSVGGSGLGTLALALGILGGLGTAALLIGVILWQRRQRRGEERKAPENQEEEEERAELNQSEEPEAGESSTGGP

How the values were obtained:
[1] = target: human RAGE (receptor for advanced glycation end-products) (human) (UniProt Q15109); test: SPR; Biacore 3000, inhibition format: S100A9 (50 nM), S100A4 (100 nM) or ~1.3 µg/mL S100A4, S100A9 and their 1:1 mixture, pre-incubated with oxyclozanide (OX), injected over RAGE or TLR4/MD2 immobilised on a CM5 chip (~3 kRU); HBS-P with 1 mM Ca++, 20 µM Zn++, 1% DMSO; both purified
[2] = target: human TLR4/MD2 (human); test: as above
[3] = target: human RAGE (receptor for advanced glycation end-products) (human) (UniProt Q15109); test: SPR; inhibition with 0.98-500 ng/mL heparan sulfate (HS): ~1.3 µg/mL S100A4, S100A9 or the 1:1 mixture injected over immobilised RAGE; 1 mM Ca++, 20 µM Zn++, no DMSO; both purified
[4] = target: human RAGE (receptor for advanced glycation end-products) (human) (UniProt Q15109); test: SPR; S100A4, S100A9 and a 1:1 mixture of S100A4/9 injected (2 min at 30 µL/min) over immobilised RAGE or TLR4; no competitor; both purified
[5] = target: human TLR4/MD2 (human); test: as above

binding [1]: binds | binding [2]: binds | binding [3]: binds | binding [4]: binds | binding [5]: binds
B1: recombinant human S100A9 (protein, UniProt P06702 1-114)
chain: MTCKMSQLERNIETIINTFHQYSVKLGHPDTLNQGEFKELVRKDLQNFLKKENKNEKVIEHIMEDLDTNADKQLSFEEFIMLMARLTWASHEKMHEGDEGPGHHHKPGLGEGTP
